US20170226179A1
These are yes or no findings as the source states them, for the method shown. For some assays here: Binding seen in cells or lysates may run through a third protein. Some binding calls cover weakened binding; strength is not graded here. Where a sequence is shown, tags or fusion partners need not be part of it.

Tests used:
[1] = target: human ferritin fused with mCherry at the C-terminal (FTH1-mCherry) (human) (UniProt P02794); assay: co-immunoprecipitation from transfected HEK-293 cells (FIG. 9e)
[2] = target: endogenous ferritin (of HEK-293 cells) (UniProt P02794); assay: immunoprecipitation of TRPV1.D5 from HEK-293 cells (data not shown)

B1: Flag-TRPV1.D5 (mouse TRPV1 linked to human domain 5 of kininogen 1, labeled with FLAG) (protein, not shown: small tags and cut ends)
chain: MEKWASLDSDESEPPAQENSCPDPPDRDPNSKPPPAKPHIFATRSRTRLFGKGDSEEASPMDCPYEEGGLASCPIITVSSVVTLQRSVDGPTCLRQTSQDSVSTGVETPPRLYDRRSIFDAVAQSNCQELESLLSFLQKSKKRLTDSEFKDPETGKTCLLKAMLNLHNGQNDTIALLLDIARKTDSLKQFVNASYTDSYYKGQTALHIAIERRNMALVTLLVENGADVQAAANGDFFKKTKGRPGFYFGELPLSLAACTNQLAIVKFLLQNSWQPADISARDSVGNTVLHALVEVADNTADNTKFVTNMYNEILILGAKLHPTLKLEELTNKKGLTPLALAASSGKIGVLAYILQREIHEPECRHLSRKFTEWAYGPVHSSLYDLSCIDTCEKNSVLEVIAYSSSETPNRHDMLLVEPLNRLLQDKWDRFVKRIFYFNFFVYCLYMIIFTTAAYYRPVEGLPPYKLNNTVGDYFRVTGEILSVSGGVYFFFRGIQYFLQRRPSLKSLFVDSYSEILFFVQSLFMLVSVVLYFSHRKEYVASMVFSLAMGWTNMLYYTRGFQQMGIYAVMIEKMILRDLCRFMFVYLVFLFGFSTAVVTLIEDGKNNSLPVESPPHKCRGSACRPGNSYNSLYSTCLELFKFTIGMGDLEFTENYDFKAVFIILLLAYVILTYILLLNMLIALMGETVNKIAQESKNIWKLQRAITILDTEKSFLKCMRKAFRSGKLLQVGFTPDGKDDFRWCFRVDEVNWTTWNTNVGIINEDPGNCEGVKRTLSFSLRSGRVSGRNWKNFALVPLLRDASTRDRHSTQPEEVQLKHYTGSLKPEDAEVFKDSMAPGEKCSRVSPPHTSMAPAQDEERDSGKEQGHTRRHDWGHEKQRKHNLGHGHKHERDQGHGHQRGHGLGHGHEQQHGLGHGHKFKLDDDLEHQGGHVLDHGHKHKHGHGHGKHKNKGKKNGKHNGWKTEHLASL
B1 was tested, and the binding [1] was “binds” and the binding [2] was “binds”.
